Values quoted from earlier work, collected in PMC10779086, “3-O-Methyltolcapone and Its Lipophilic Analogues Are Potent Inhibitors of Transthyretin Amyloidogenesis with High Permeability and Low Toxicity” (International Journal of Molecular Sciences, 2023).

Test system: TTR
Settings: cited from earlier work

In the case of `Cc1n[nH]c(C)c1CCCOc1cc(C(=O)O)ccc1F` [AG10], the ΔH (standard single-site binding model) is given as -13.6 kcal/mol.

For `Cc1ccc(C(=O)c2cc(O)c(O)c([N+](=O)[O-])c2)cc1` [tolcapone], the “ΔH (first binding site)” value (sequential model) is listed as -9.7 kcal/mol and the “ΔH (second binding site)” value (sequential model) is listed as -9.7 kcal/mol.
